Results are given in words; binding and its absence hold for the method and conditions named. Some binding calls cover weakened binding; strength is not graded here.
Molecular target: T1, human PTK7 (full length) expressed on HEK293T cells (human) (UniProt Q13308)
T1 sequence (looked up): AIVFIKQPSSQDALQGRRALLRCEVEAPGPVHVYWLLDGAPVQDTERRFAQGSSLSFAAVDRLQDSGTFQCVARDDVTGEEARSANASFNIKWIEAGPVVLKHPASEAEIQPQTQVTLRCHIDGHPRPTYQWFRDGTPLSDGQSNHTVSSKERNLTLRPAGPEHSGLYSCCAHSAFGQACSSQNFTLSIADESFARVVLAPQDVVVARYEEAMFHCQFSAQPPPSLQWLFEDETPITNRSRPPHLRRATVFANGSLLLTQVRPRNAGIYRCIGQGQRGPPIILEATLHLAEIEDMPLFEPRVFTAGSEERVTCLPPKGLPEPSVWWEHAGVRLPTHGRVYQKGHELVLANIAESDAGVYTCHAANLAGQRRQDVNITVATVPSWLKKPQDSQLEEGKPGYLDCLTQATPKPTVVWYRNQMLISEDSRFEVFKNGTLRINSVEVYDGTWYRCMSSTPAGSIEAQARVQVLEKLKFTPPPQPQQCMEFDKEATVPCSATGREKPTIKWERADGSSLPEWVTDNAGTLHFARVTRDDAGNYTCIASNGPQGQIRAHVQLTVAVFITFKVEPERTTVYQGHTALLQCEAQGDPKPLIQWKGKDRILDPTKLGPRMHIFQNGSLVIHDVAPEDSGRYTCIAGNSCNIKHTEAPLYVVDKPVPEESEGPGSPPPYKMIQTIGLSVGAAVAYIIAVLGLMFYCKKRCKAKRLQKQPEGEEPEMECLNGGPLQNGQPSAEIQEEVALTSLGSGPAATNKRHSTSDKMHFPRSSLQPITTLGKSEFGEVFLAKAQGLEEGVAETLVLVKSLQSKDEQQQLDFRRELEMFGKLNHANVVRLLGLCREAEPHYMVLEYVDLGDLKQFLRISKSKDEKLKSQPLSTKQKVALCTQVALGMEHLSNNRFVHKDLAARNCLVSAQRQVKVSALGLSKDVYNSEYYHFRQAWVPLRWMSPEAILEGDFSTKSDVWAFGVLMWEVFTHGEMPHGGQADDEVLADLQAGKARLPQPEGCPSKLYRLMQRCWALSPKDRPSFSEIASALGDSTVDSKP
Test: flow cytometry and antibody-loaded magnetic particles on PTK7-expressing HEK293T cells, hybridoma screening

B1: #19 antibody (antibody, V domains shown)
VH: EVQLVESGGGLVQPGRSMKLSCAASGFTFSNYDMAWVRQAPTKGLEWVTSVSSDGSTTYYRDSVKGRFTISRDNAKTTLSLQMGSLRSEDTATYYCLTLYYSHWGQGVMVTVSS
VL: DIQMTQSPASLSASLEEIVTITCQASQDIGDWLSWYQQKPGKSPQLLIYGTTTLADGVPSRFSGSRSGTQFSLKISRLQVEDIGIYYCLQAYSAPFTFGSGTKLKIK
For B1, the binding was “binds”.

From patent US20260132221A1
